Laboratory results as given in PubChem BioAssay AID687031 (Broad Institute, 2013).
The whole screen tested about 1,400 compounds, of which about 50 (4%) were called active.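 How the source made its calls: active means fitted curve reaches 30% CPE protection at or below the top valid dose, with every test run called active; inconclusive means test runs disagree, some active and some not; inactive means every test run inactive, including effects in the wrong direction.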 The list shows a part of the results. Entries with a potency or affinity are not part of this list.

Assay: antiviral rescue of DENV2-infected BHK-21 cells – cell-based, ATP luminescence, cherry-pick, dose response (AID 687031);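 further: 0% = infected DMSO wells and 100% = uninfected cell wells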
Conditions: BHK-21 DENV2 CPE protection, 5 d; at 19.5 µM (top of the series) unless noted

CPE protection (higher = active), inactive:
CCCNC(=O)N1[C@H](CO)[C@H](c2ccccc2)[C@@H]1CNC(=O)c1ccc(F)cc1 3.14%
CCOC(=O)C1=CN(CC)S(=O)(=O)NC1c1cccc(OC)c1 (stereo not given) 4.62%
Cc1cccnc1NC(=O)c1ccc(S(=O)(=O)N2CCCC2)cc1 7.33%
Cc1ccc(OCc2nnc(SCc3cc(=O)[nH]c4ccccc34)n2-c2ccccc2)cc1 -15.6%
COc1ccc(CN2CCC(C(=O)NC(c3ccc4c(c3)OCO4)c3ccccn3)CC2)cc1 (stereo not given) 4.46%
O=C(NCc1cccc(F)c1)[C@@H]1[C@@H](CO)[C@@H]2Cn3c(cccc3=O)[C@H]1N2C(=O)c1cnccn1 3.92%
CC(C)CC1NC(=O)c2ccccc2-n2c1nc1ccccc1c2=O (stereo not given) -9.6%
O=C(O)C(Cc1ccc(Cl)cc1)NS(=O)(=O)c1ccc(Cl)cc1 (stereo not given) -8.16%
CC(=O)NC(Cc1ccccc1)C(=O)O (stereo not given) -1%
COC(=O)C1=C(C)N(C)C(=NCc2ccc(OC)cc2)NC1c1ccc(F)cc1 (stereo not given) 16.6%
Cc1cccc(N2CCN(C(C(=O)NCc3ccccc3)c3ccc(F)cc3)CC2)c1C (stereo not given) -8.34%
CCN1CCN(c2ccc(S(=O)(=O)N3CCCCC3)cc2NC(=O)c2ccc(C)c(C)c2)CC1 -4.78%
N#Cc1ccc(-c2ccc(OCC(=O)NN=Cc3ccncc3)cc2)cc1 -4.99%
Cn1cnc(S(=O)(=O)N[C@@H]2CC[C@H](CC(=O)NCC3CCCCC3)O[C@@H]2CO)c1 7.9%
O=C(C1CCCN(S(=O)(=O)c2cccnc2)C1)N1CCN(c2ccccn2)CC1 (stereo not given) -5.94%
Cc1ccc(/C=N/NC(=O)c2ccc(-n3cnnn3)cc2)cc1 -4.6%
COCCNC(=O)C1(C)CCN(C(=O)c2ccc3sccc3c2)C1 (stereo not given) -18.1%
O=C(Oc1ccccc1)c1ccccc1C(=O)Oc1ccccc1 21.1%
O=C(c1cc(C2CC2)on1)N1CCN(C(c2ccccc2)c2ccccc2)CC1 -7.12%
Cc1ccccc1N1Cc2ccccc2C1=O 6.73%
C[C@@H](NC(=O)[C@@H]1[C@@H](CO)[C@@H]2Cn3c(cccc3=O)[C@@H]2N1CC1CCCC1)c1ccccc1 -38.4%
Cc1nc2ccn(Cc3ccccc3)c(=O)c2cc1C(=O)N1CCN(c2ccccc2)CC1 -15.3%
O=C(NCCc1ccncc1)[C@@H]1[C@@H](CO)[C@@H]2Cn3c(ccc(-c4cccc(F)c4)c3=O)[C@H]1N2 11.4%
COc1ccc(N2CCN(CC(O)COc3ccc(F)cc3)CC2)cc1 (stereo not given) -9.59%
COc1ccc(NC(=O)[C@@H]2CC=C[C@@H]3CCN(Cc4ccccc4)C(=O)[C@@H]32)cc1 0.873%
COc1ccc(CN2C(=O)CCC2(C)c2nnnn2Cc2ccccc2)cc1 (stereo not given) -2.96%
CCC(=O)N1CC2(C1)CN(C(=O)Nc1ccc(F)cc1)[C@H](CO)c1c2c2ccc(OC)cc2n1C 5.8%
COc1ccc(CCNC2CC(=O)N(C3CCCCC3)C2=O)cc1OC (stereo not given) 5.64%
Cc1ccc(CN2CCCOCCS2(=O)=O)cc1 24.4%
CS(=O)(=O)N1CCc2cc(C(=O)N3CCN(c4ccccc4)CC3)ccc21 14.1%
O=C1CCCC(c2ccccc2)N1 (stereo not given) -8.5%
CN(CC(=O)Nc1ccccc1Cl)C(=O)COC(=O)c1cccs1 -9.78%
COc1ccc2c3c(n(C)c2c1)[C@H](CO)N(Cc1ccccc1F)CC31CCN(C(C)=O)CC1 -20.8%
CN1CCC2CC1c1cc(-c3ccc(C(F)(F)F)cc3)ccc12 (stereo not given) -7.74%
COc1ccccc1CN1CC(C(=O)NCc2nccn2C)CCC1=O (stereo not given) -3.12%
COc1ccc(CCC(C)NCc2ccc(F)cc2)cc1 (stereo not given) 18.5%
C[C@@H]1CCCCO[C@H](CN(C)C(=O)NC2CCCCC2)[C@@H](C)CN([C@H](C)CO)C(=O)c2cc(NC(=O)CCCCCC(=O)Nc3ccccc3N)ccc2O1 -29.3% [at 21 µM]
Cc1cc(=O)oc2c(C)c(OC(C)C(=O)NC(Cc3c[nH]c4ccc(O)cc34)C(=O)O)ccc12 (stereo not given) -4.33%
CNC(=O)C1(C)C=CC2(CCCCC2)N1C(=O)OC (stereo not given) 1.07%
COc1ccc2c(=O)cc(-c3ccncc3)oc2c1OC -1.7%
COc1cc(C(=O)OCCCN2CCOCC2)cc(OC)c1OC -14.2%
CCCCn1nc(C(=O)Nc2ccc3c(c2)OCO3)c2ccccc2c1=O -6.73%
O=C(Nc1ccn(CC(=O)N2CCN(c3ccccn3)CC2)c(=O)n1)OCc1ccccc1 -15.4%
CN1CCN(CCOc2ccc(-c3ccccc3)cc2)CC1 -14.5%
COc1cccc(N2CCN(C(=O)c3cccc(NC4=NC5CS(=O)(=O)CC5S4)c3)CC2)c1 (stereo not given) 9.98%
Cc1cnc(NC(=O)C2CC(=O)N(c3cccc(Cl)c3)C2)s1 (stereo not given) 4.01%
CCCn1c(NCc2ccc(N(C)C)cc2)nc2ccccc21 -13.2%
CN1C(c2ccccc2)CCOS1(=O)=O (stereo not given) -17.1%
Cc1ccc(Cl)cc1N1CCN(CC(O)COC(C)C)CC1 (stereo not given) 4.86%
CCc1ccc(O)c(CNCCNCc2cc(CC)ccc2O)c1 -15.9%
O=c1cc(CSc2nnc(-c3ccccc3)o2)c2ccccc2[nH]1 -8.63%
O=C(c1ccccc1Br)N1CCN(Cc2ccc3c(c2)OCO3)CC1 12%
COc1ccc(NC(=O)COC(=O)c2c(C)noc2C)cc1Cl 11.1%
COc1ccc(NC(=O)C(OC(=O)c2cnc(C)cn2)c2ccccc2)cc1Cl (stereo not given) -0.469%
C[C@H](CO)N1C[C@H](C)[C@@H](CN(C)C(=O)Nc2cccc3ccccc23)OCCCC[C@H](C)Oc2ccc(NC(=O)NC3CCCCC3)cc2C1=O 3.1%
Cc1ccccc1S(=O)(=O)NC(=O)C1(C)CCN1C(=O)CC(c1ccccc1)c1ccccc1 (stereo not given) 8.27%
C[C@@H]1CCCCO[C@H](CN(C)C(=O)Nc2ccc(C(F)(F)F)cc2)[C@H](C)CN([C@@H](C)CO)C(=O)c2cc(NS(=O)(=O)c3ccc(F)cc3)ccc2O1 15.1%
CCn1c(SCc2cccc(F)c2)nnc1-c1ccncc1 -13.2%
COc1cc(OC)cc(C(=O)NCCC(c2ccccc2)c2ccccc2)c1 -16.4%
O=C(NCc1ccc(Cl)c(Cl)c1)c1cc(C2CCCCN2C(=O)OCCF)on1 (stereo not given) 13.3%
OC[C@@H]1[C@@H](c2ccccc2)C2(CN(Cc3nccs3)C2)N1Cc1cccnc1 -2.78%
COc1ccc(C2(C)CC(C)(C)Nc3ccccc32)cc1 (stereo not given) 24.1%
Cc1ccccc1CN1C(=O)CN(S(C)(=O)=O)CC1(C)C(=O)NCc1ccccc1 (stereo not given) -24.2%
CCN(Cc1ccc(OC)c(COC)c1)CC1CCCN(CCc2cccc(OC)c2)C1 (stereo not given) 27.2%
COc1ccc(C(=O)NCCNc2nc3c(C)cccc3cc2C#N)cc1OC -3.71%
Cc1ccc(OCC(=O)NC2CCSc3ccccc32)cc1 (stereo not given) -2.69%
COc1ccc2c(c1)OC[C@H]1[C@H]2N2C(=O)c3cc(OC)ccc3NC(=O)[C@@]2(C)[C@H]1c1ccccc1 -19.2%
CCN(C)C1CN(Cc2cn(Cc3ccc(F)cc3)nn2)S(=O)(=O)C1 (stereo not given) -3.5%
CCOC(=O)Nc1ccc(N2CCOCC2)c(S(=O)(=O)N2CCOCC2)c1 10.6%
Cc1ccc(C(=O)Nc2ccc(CN3CCCCC3)cc2)c(C)c1 11.5%
CCOc1ccc(Oc2nc(NCC(C)C)nc(OC)n2)nn1 -24.7%
CC1CCCCN1CCCNC(=O)c1ccc2nc(N3CCCCC3)sc2c1 (stereo not given) 16.9%
N#CC[C@H](c1ccccc1)N1CCN(Cc2ccccc2)CCC1=O 27.4%
CC1(C(=O)NS(C)(=O)=O)CCN1C(=O)C/C=C/c1ccccc1 (stereo not given) 8.98%
COc1cccc(NC(=O)COc2cccc3c2CCNC3=O)c1 -1.74%
CCc1c(C2CC2)ncn1Cc1cccc(-c2ccccc2)c1 22.2%
CC(C)CNC(=O)C1(C)CCCN1C(=O)c1cncc(Br)c1 (stereo not given) 3.91%
CO[C@@H]1CN(C)C(=O)c2ccc(NC(=O)Nc3cccc(F)c3)cc2OC[C@@H](C)N(C(C)=O)C[C@H]1C -13%
O=C1CCN(CCc2ccccc2)CCN1[C@H](COc1ccccc1)c1ccccc1 -22.3%
CC(C)(O)C#Cc1ccc([C@@H]2[C@@H](CO)N3CCCCN(C(=O)c4ccc(F)cc4)C[C@@H]23)cc1 -12.7%
CSCCC(N=C1NS(=O)(=O)c2ccccc21)C(=O)NCCc1ccccc1 (stereo not given) 18.1%
C[C@@H]1CCCCO[C@H](CN(C)S(=O)(=O)c2ccccc2)[C@@H](C)CN([C@@H](C)CO)C(=O)c2cc(NC(=O)CCCN(C)C)ccc2O1 5.11%
COc1ccc(/C=N/NC(=O)c2nc(-c3ccccc3)n(-c3ccccc3)n2)cc1OC 6.48%
Fc1ccccc1-c1nc(-c2ccc(-c3nn[nH]n3)cc2)no1 -17%
COc1ccc(N(CC(=O)N2CCN(C)CC2)S(=O)(=O)c2cc(C)ccc2OC)cc1Cl 2.48%

Structures above that contain fluorine (17):
CPE protection (higher = active), inactive:
CCCNC(=O)N1[C@H](CO)[C@H](c2ccccc2)[C@@H]1CNC(=O)c1ccc(F)cc1 3.14%
O=C(NCc1cccc(F)c1)[C@@H]1[C@@H](CO)[C@@H]2Cn3c(cccc3=O)[C@H]1N2C(=O)c1cnccn1 3.92%
COC(=O)C1=C(C)N(C)C(=NCc2ccc(OC)cc2)NC1c1ccc(F)cc1 (stereo not given) 16.6%
Cc1cccc(N2CCN(C(C(=O)NCc3ccccc3)c3ccc(F)cc3)CC2)c1C (stereo not given) -8.34%
O=C(NCCc1ccncc1)[C@@H]1[C@@H](CO)[C@@H]2Cn3c(ccc(-c4cccc(F)c4)c3=O)[C@H]1N2 11.4%
COc1ccc(N2CCN(CC(O)COc3ccc(F)cc3)CC2)cc1 (stereo not given) -9.59%
CCC(=O)N1CC2(C1)CN(C(=O)Nc1ccc(F)cc1)[C@H](CO)c1c2c2ccc(OC)cc2n1C 5.8%
COc1ccc2c3c(n(C)c2c1)[C@H](CO)N(Cc1ccccc1F)CC31CCN(C(C)=O)CC1 -20.8%
CN1CCC2CC1c1cc(-c3ccc(C(F)(F)F)cc3)ccc12 (stereo not given) -7.74%
COc1ccc(CCC(C)NCc2ccc(F)cc2)cc1 (stereo not given) 18.5%
C[C@@H]1CCCCO[C@H](CN(C)C(=O)Nc2ccc(C(F)(F)F)cc2)[C@H](C)CN([C@@H](C)CO)C(=O)c2cc(NS(=O)(=O)c3ccc(F)cc3)ccc2O1 15.1%
CCn1c(SCc2cccc(F)c2)nnc1-c1ccncc1 -13.2%
O=C(NCc1ccc(Cl)c(Cl)c1)c1cc(C2CCCCN2C(=O)OCCF)on1 (stereo not given) 13.3%
CCN(C)C1CN(Cc2cn(Cc3ccc(F)cc3)nn2)S(=O)(=O)C1 (stereo not given) -3.5%
CO[C@@H]1CN(C)C(=O)c2ccc(NC(=O)Nc3cccc(F)c3)cc2OC[C@@H](C)N(C(C)=O)C[C@H]1C -13%
CC(C)(O)C#Cc1ccc([C@@H]2[C@@H](CO)N3CCCCN(C(=O)c4ccc(F)cc4)C[C@@H]23)cc1 -12.7%
Fc1ccccc1-c1nc(-c2ccc(-c3nn[nH]n3)cc2)no1 -17%

Taken from the entries so far (two entries):
CPE protection (higher = active), inactive:
Cc1ccc(/C=N/NC(=O)c2ccc(-n3cnnn3)cc2)cc1 -4.6%
COCCNC(=O)C1(C)CCN(C(=O)c2ccc3sccc3c2)C1 (stereo not given) -18.1%
